# Laboratory results from PubChem BioAssay AID1508600 (Functional Genomics Laboratory (NCATS/FGL), 2020).
# Screen size: about 53,000 sequences; about 3,700 (7%) were called active.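 How the source made its calls: active means gene knockdowns whose robust z-score for IL-1 alpha signal is at least 2 or at most -2, so actives lie on both sides; inactive means the rest.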 The list shows a part of the results.
# Test: Components of the Cytosolic LPS Sensing Pathway: Gene Identification via Genome-wide siRNA Screen;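 further: robust z of the log signal after scaling to non-targeting control siRNA wells of the plate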
# Details: RAW264.7 macrophages, IL-1a HTRF, actives lie on both sides, screened at 100 nM (by protocol), cells primed 5 h with Pam3CSK4 first
# Procedure, shortened: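 IL-1a HTRF of supernatants after 24 hour LipidA transfection of Pam3CSK4-primed (5 hours) RAW264.7 cells, 48h post-siRNA transfection (100 nM). Scores: percent of plate negative-control median, then log-based robust z-score.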
row,Sequence,z-score
1,CGCUAAUCUUCGAAAACCUTT against Abcc12,inactive: -0.998
2,GCCCUUUGAGACAUUGGAATT against Ciz1,inactive: 0.311
3,GGAGCAAAAGGGUCAGAGGTT against Socs3,inactive: 1.16
4,GCCUUCAUAGUUGGAAACCTT against Olfr172,inactive: 0.279
5,CCUUUUAGGGAAAUUUGCATT against Mcm9,inactive: 0.651
6,GCCUAAUGAUUGCAUCCUATT against Gm11437,inactive: 1.05
7,GGAAGUUUAUGAUGAUGUCTT against Prpf40b,inactive: -0.145
8,GGACCUCAACAUCCAGAGATT against Sema6b,inactive: -0.217
9,GGCUUAUUGGCUUGACCAATT against Exoc3l2,inactive: 0.428
10,GCUGGAUGCCGUAUCUAAGTT against Caprin1,inactive: 0.54
11,GGGAAUGAAGAACUUCCUCTT against Gapvd1,inactive: 0.508
12,GGCAUCUUGACCUUGAAGUTT against Actbl2,inactive: 1.3
13,GGAUAACUAGCAUUUCCCATT against Ninj2,inactive: -1.18
14,GACGAUUCUCUGUUGGUGUTT against Hcrt,inactive: 0.577
15,CGACAAUCGACAAUCGUGCTT against Acta1,inactive: -0.817
16,GGUCGAUGGUGCUCUGAAGTT against Spry3,inactive: 0.0297
17,CCAACGACUAAGAGAAGAGTT against Tdrp,inactive: 0.466
18,GAUACUUGGCUCCUAGAAGTT against Olfr803,inactive: -1.22
19,GGCUGCUACUGACAGAUUATT against Fgd6,inactive: 0.162
20,GGCCCUCAAACAGUGCAAATT against Chchd10,active: 2.09
21,GCUCUUCUGUCCAAAGAUGTT against Pim3,inactive: -0.235
22,GCUACAUCACAUGCAGUUCTT against Brinp2,inactive: -1.1
23,GCCAGAAUCAGAUCUCUCGTT against Amigo1,inactive: 1.49
24,CCUACUACUUCGUUAUCCGTT against Chrna2,inactive: 0.447
25,GGAGAAAUUCAAAGAGAGUTT against Gas2,inactive: 0.487
26,GCCUUUGUACAAUGACUAUTT against Prpf38a,inactive: -0.127
27,CCAGCUCAUUCAAGAGCAATT against Tmc6,inactive: -0.163
28,GGCAAAAACUACGUGCACCTT against Mapk7,inactive: 0.985
29,CGGUGAUCAAUCAUUGUAATT against Tas2r113,active: -2.16
30,GGCACAAACAUGUGUUCUATT against Vmn1r56,inactive: 0.584

# Two records picked at random from those above:
row,Sequence,z-score
9,GGCUUAUUGGCUUGACCAATT against Exoc3l2,inactive: 0.428
14,GACGAUUCUCUGUUGGUGUTT against Hcrt,inactive: 0.577
